In PubChem BioAssay AID720511 (Broad Institute, 2013):
Values joined by “and” are separate entries in the source; they are usually repeats but may differ in a detail not shown here. Equal values may be shown once. Screen size: about 350,000 compounds; about 1,300 (0.37%) were called active. The shares of active, inactive and inconclusive entries below differ from those in the screen.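 How the source made its calls: active means mean added fluorescence quench of at least 8% versus neutral control, with both replicates also reaching 8%; inconclusive means only one of the mean or replicate conditions met; inactive means mean below 8% and not both replicates reaching 8%.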 A structure can be active in one record and inactive in another.

assay: F508del CFTR correction, initial screen, CFBE line, single point (AID 720511); settings: CFBE cells, YFP halide quenching, at 7.58 µM, stronger effect = higher value;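 further: cells transiently co-express mutant CFTR-F508del with the halide-sensitive YFP; corrector assay measuring rescue of mutant channel to the surface after 24 h compound exposure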

Q: For `CN(C)c1ccc(/C=C/C=C2/C(=O)NC(=O)N(c3ccccc3)C2=O)cc1`, which activity (quench increase) is on record?
A: The activity (quench increase) was inconclusive: 10.6%.

Q: With `O=C(Cc1ccccc1)N1CC2(C1)[C@H](c1ccccc1)[C@@H](CO)N2Cc1cccc(F)c1` as the compound, how does the activity (quench increase) read?
A: The activity (quench increase) was inconclusive: 8.69%.

Q: With `CCOc1ccc(-c2c(C)n(-c3ccc(OCC)cc3)c3[n+]2CCCCC3)cc1` as the compound, how does the activity (quench increase) read?
A: The activity (quench increase) was inconclusive: 8.55%.

Q: Which activity (quench increase) does the source give for `CN1/C(=C\C=C2C(=O)NC(=O)NC2=O)C(C)(C)c2ccccc21` here?
A: The activity (quench increase) was inconclusive: 15%.

Q: For `COC(=O)c1cn(C(=O)c2cccc3ccccc23)c2ccccc12`, which activity (quench increase) is on record?
A: The activity (quench increase) was inconclusive: 8.08%.

Q: With `N#C/C(=C\c1ccc(O)cc1)C(=O)O` (tested in a mixture with another compound) as the compound, how does the activity (quench increase) read?
A: The activity (quench increase) was active: 11.1%.

Q: Which activity (quench increase) does the source give for `NCCc1cc(O)c(O)cc1O` here?
A: The activity (quench increase) was inactive: -9.61% and inactive: -0.033%.

Q: With `COC(=O)[C@@H]1[C@@H](CO)[C@@H]2Cn3c(ccc(-c4ccccc4)c3=O)[C@H]1N2CC1CCOCC1` as the compound, how does the activity (quench increase) read?
A: The activity (quench increase) was inactive: -1.46%.

Q: With `CN1C(=O)NC(=O)C2(CCCC2)C1=O` as the compound, how does the activity (quench increase) read?
A: The activity (quench increase) was active: 10.3%.

Q: For `CN1CCC2(CC1)N=C(c1ccc(F)cc1)C(=S)N2`, which activity (quench increase) is on record?
A: The activity (quench increase) was inconclusive: 8.37%.

Q: With `Cc1cc(C)cc(N2C(=O)NC(=O)/C(=C\C=C\c3ccco3)C2=O)c1` as the compound, how does the activity (quench increase) read?
A: The activity (quench increase) was inconclusive: 17%.

Q: Which activity (quench increase) does the source give for `CCN(CC)c1ccc(/C=C/[N+](=O)[O-])cc1` here?
A: The activity (quench increase) was inconclusive: 12.3%.
